These results are taken from the supplement of paper PMC5770031.

The list shows a part of the results. Single values are uncertain here, since repeats match poorly.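 Flies heterozygous for the ATM8 allele over a balancer chromosome carrying normal ATM were mated with each other on treated food. Parents laid eggs for 5–6 days and the young then developed for about 12 days, so both parents and larvae ate the compound. The read-out is the share of all emerged adults that carry two ATM8 copies, compared with 2% DMSO control vials. The paper called compounds neutral at 10–20% such offspring, harmful below 10%, and helpful above 20%.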 Peptide text beside a SMILES is read from it.

The test system of the test is Drosophila melanogaster ATM8 (temperature-sensitive ATM allele). Briefly: fraction of eclosed F1 progeny that are homozygous ATM8 (rescue of developmental lethality); higher = more rescue of ATM8 developmental lethality; extreme values may be limits of the assay. Particulars: compound concentration applied to food 0.2 mM; 21 °C.
Turning to `COc1ccc(-c2oc3cc(OC)c(OC)c(OC)c3c(=O)c2OC)cc1OC`, the “fraction of eclosed F1 progeny that are homozygous ATM8” value (shortened to “fraction”) was determined as 0.162.

With `O=C(O)c1ccc[n+]([O-])c1`, the “fraction” value was determined as 0.0984.

`CC1C(=O)OC2C1CCC1(C)CCC(=O)C(C)C21` (stereo not drawn): the “fraction” value was 0.0678.

`NC[C@H]1O[C@H](O[C@H]2[C@H](O)[C@@H](O[C@H]3O[C@H](CO)[C@@H](O)[C@H](N)[C@H]3O)[C@H](N)C[C@@H]2N)[C@H](N)C[C@@H]1O`: the “fraction” value was 0.0625.

Take `O=C(O)C1=CC(=C(c2ccc(O)c(C(=O)O)c2)c2ccc(O)c(C(=O)O)c2)C=CC1=O`: the “fraction” value was 0.0444.

`O=c1cc(-c2ccccc2)oc2ccccc12`: the “fraction” value came out at 0.245.

For `COc1cc(O)c2c(=O)c(OC)c(-c3ccc(OC)c(OC)c3)oc2c1`, the “fraction” value was 0.205.

Regarding `O=[N+]([O-])C(Br)(CO)CO`, the “fraction” value came to 0.163.

Take `CC(C(O)c1ccc(O)cc1)N1CCC(Cc2ccccc2)CC1` (stereo not drawn): the “fraction” value came to 0.22.

Regarding `C[C@@H]1C/C=C/C=C/C=C/C=C/[C@H](O[C@@H]2O[C@H](C)[C@@H](O)[C@H](N)[C@@H]2O)C[C@@H]2O[C@](O)(C[C@@H](O)C[C@H]3O[C@@H]3/C=C/C(=O)O1)C[C@H](O)[C@H]2C(=O)O`, the “fraction” value was 0.0312.

In the case of `NCCC(=O)N[C@@H](Cc1c[nH]cn1)C(=O)O`, the “fraction” value was 0.108.

In the case of `CC(C)[C@H](N)C(=O)OCCOCn1cnc2c(=O)nc(N)[nH]c21`, the “fraction” value is 0.341.

Consider `COC1=C[C@@H]2[C@@H]3Cc4ccc(OC)c(O)c4[C@]2(CCN3C)CC1=O`, for which the “fraction” value came to 0.0244.

Take `CC1(C)O[C@@H]2C[C@H]3[C@@H]4C[C@H](F)C5=CC(=O)C=C[C@]5(C)[C@@]4(F)[C@@H](O)C[C@]3(C)[C@]2(C(=O)CO)O1`: the “fraction” value turned out to be 0.104.

Take `COc1cc(NS(=O)(=O)c2ccc(N)cc2)ncn1`: the “fraction” value was 0.0588.

As for `CCCCCCCC/C=C\CCCCCCCC(=O)O.NCCO`, the “fraction” value turned out to be 0.178.

For the molecule `CC(C)=CCc1c2c(c3occ(-c4ccc(O)c(O)c4)c(=O)c3c1O)C=CC(C)(C)O2`, the “fraction” value was 0.176.

`COC(=O)N/N=C/c1c[n+]([O-])c2ccccc2[n+]1[O-]`: the “fraction” value came to 0.225.

For the molecule `CN(C(=O)CN(CCO)CC(=O)N(C)C(C)(C)Cc1ccccc1)C(C)(C)Cc1ccccc1`, the “fraction” value turned out to be 0.113.

For the molecule `CCCCCCNC(=O)n1cc(F)c(=O)[nH]c1=O`, the “fraction” value amounted to 0.25.

Take `O=C1C=CC(=O)c2ccccc21`: the “fraction” value came out at 0.105.

`CCN(Cc1cccc(S(=O)(=O)O)c1)c1ccc(C(=C2C=CC(=[N+](CC)Cc3cccc(S(=O)(=O)O)c3)C=C2)c2ccc(O)cc2S(=O)(=O)[O-])cc1`: the “fraction” value came to 0.075.

Consider `CCCOc1ccccc1-c1nc2[nH]nnc2c(=O)[nH]1`, for which the “fraction” value stood at 0.265.

Consider `CC(C)=CCC1=C(O)C(=O)c2ccccc2C1=O`, for which the “fraction” value was 0.258.

On to `COc1ccc(Cl)cc1C(=O)NCCc1ccc(S(=O)(=O)NC(=O)NC2CCCCC2)cc1`, for which the “fraction” value was determined as 0.305.

On to `CC#C[C@]1(O)CC[C@H]2[C@@H]3CCC4=CC(=O)CCC4=C3[C@@H](c3ccc(N(C)C)cc3)C[C@@]21C`, for which the “fraction” value is 0.0333.

Turning to `OC[C@@H](O)[C@@H](O[C@@H]1O[C@H](CO)[C@@H](O)[C@H](O)[C@H]1O)[C@H](O)[C@@H](O)CO`, the “fraction” value was 0.314.

On to `COc1cc(O)c2c(=O)cc(C)oc2c1CC=C(C)C`, for which the “fraction” value worked out at 0.128.

As for `CCCCOc1cc(C(=O)OCCN(CC)CC)ccc1N`, the “fraction” value was found to be 0.

For the molecule `C[N+](C)(C)CC(O)CC(=O)[O-]` (stereo not drawn), the “fraction” value came to 0.0357.

Regarding `COC1=CC(=O)C(O)=C/C1=C\C=C\c1ccccc1`, the “fraction” value worked out at 0.121.

On to `CC(C)Oc1ccc2c(=O)c(-c3ccccc3)coc2c1`, for which the “fraction” value stood at 0.0303.

On to `Cc1cc2cc3c(C)cc(=O)oc3c(C)c2o1`, for which the “fraction” value stood at 0.25.

As for `CC(=O)Nc1c(I)cc(I)c(C(=O)O)c1I`, the “fraction” value was 0.278.

Regarding `CC(=O)O[C@]1(C)CC[C@@]23C[C@H]1C(C)(C)[C@@H]2CC[C@H]3C`, the “fraction” value is 0.0938.

Consider `CC(=O)Nc1nnc(S(N)(=O)=O)s1`, for which the “fraction” value is 0.111.

In the case of `CCC(C)C(=O)O[C@@H]1C[C@@]2(C)[C@H](c3ccoc3)OC(=O)CC23OC2(C)O[C@]14[C@]1(C)[C@@H](CC(=O)OC)C5(C)CC1(O)[C@](O)(C5OC(=O)C1(C)OC1C)[C@@H](OC(C)=O)[C@]34O2` (stereo partly drawn), the “fraction” value was found to be 0.24.

Turning to `O=C(CCCl)NCCc1ccccc1`, the “fraction” value is 0.154.

For the molecule `COC(=O)c1c(OC)cc2c(c1C)Oc1c(Cl)c(O)c(Cl)c(C)c1C(=O)O2`, the “fraction” value was determined as 0.156.

Turning to `COc1cc(CNC(=O)CCCC/C=C/C(C)C)ccc1O`, the “fraction” value is 0.133.

In the case of `O=C(NCCCN1CCOCC1)c1ccc(Cl)cc1`, the “fraction” value worked out at 0.04.

In the case of `O=C(O)[C@@H]1[C@H]2C[C@H]3c4[nH]c5ccccc5c4CCN3C[C@@H]2CC[C@@H]1O`, the “fraction” value was 0.0513.

Consider `C[C@]12CC[C@@H]3c4ccc(O)cc4C[C@@H](CCCCCCCCC[S+]([O-])CCCC(F)(F)C(F)(F)F)[C@H]3[C@@H]1CC[C@@H]2O` (stereo partly drawn), for which the “fraction” value was 0.0294.

As to `C=C[C@](C)(O)CC[C@@H]1[C@@]2(C)CCCC(C)(C)[C@@H]2CC[C@@]1(C)O`, the “fraction” value stood at 0.0625.

Take `CO/N=C(\C(=O)N[C@@H]1C(=O)N2C(C(=O)O)=C(COC(C)=O)CS[C@H]12)c1csc(N)n1`: the “fraction” value was found to be 0.162.

For `CC(=O)C1CCC2C3CC=C4CC(OS(=O)(=O)O)CCC4(C)C3CCC12C` (stereo not drawn), the “fraction” value is 0.19.

For the molecule `COC(=O)[C@H](Cc1ccccc1)NC(=O)[C@@H](N)CC(=O)O` (H-Asp-Phe-OMe), the “fraction” value is 0.346.

Regarding `NCC(CC(=O)O)c1ccc(Cl)cc1` (racemic), the “fraction” value came to 0.0784.

In the case of `CC[C@H]1OC(=O)[C@H](C)[C@@H](O[C@H]2C[C@@](C)(OC)[C@@H](O)[C@H](C)O2)[C@H](C)[C@@H](O[C@@H]2O[C@H](C)C[C@H](N(C)C)[C@H]2O)[C@](C)(O)C[C@@H](C)CN(C)[C@H](C)[C@@H](O)[C@]1(C)O`, the “fraction” value is 0.25.

For the molecule `CCOC(=O)C(Cc1ccc(O)cc1)NC(C)=O` (stereo not drawn), the “fraction” value was determined as 0.222.

For the molecule `CN[C@H]1CC[C@@H](c2ccc(Cl)c(Cl)c2)c2ccccc21`, the “fraction” value was 0.194.

Consider `Nc1ccc(S(=O)(=O)Nc2nccs2)cc1`, for which the “fraction” value came out at 0.114.

In the case of `CN1C[C@H](C(=O)N[C@]2(C)O[C@@]3(O)[C@@H]4CCCN4C(=O)[C@H](Cc4ccccc4)N3C2=O)C=C2c3cccc4[nH]cc(c34)C[C@H]21`, the “fraction” value is 0.0769.

For `O=C1c2ccccc2C(=O)c2c(O)c(O)cc(O)c21`, the “fraction” value was determined as 0.293.

`Cc1ccc(-c2cc(C(F)(F)F)nn2-c2ccc(S(N)(=O)=O)cc2)cc1`: the “fraction” value turned out to be 0.17.

Turning to `CNc1ccccc1C(=O)O`, the “fraction” value was determined as 0.0556.

Consider `CC(C)[N+]1(C)[C@@H]2CC[C@H]1C[C@@H](OC(=O)C(CO)c1ccccc1)C2` (stereo partly drawn), for which the “fraction” value was determined as 0.

Consider `O=C(O)C1=C(CSc2nnnn2CS(=O)(=O)O)CS[C@@H]2[C@H](NC(=O)[C@H](O)c3ccccc3)C(=O)N12`, for which the “fraction” value was 0.
